Measured values reported in PubChem BioAssay AID2685 (National Center for Advancing Translational Sciences (NCATS), 2010).
The list shows a part of the results. The main result of the screen is listed elsewhere. These columns were measured beside it and carry no call. The list favours compounds with an active or inconclusive main result. The note in brackets gives the kind of curve behind each potency; many fits are weak.

Assay: qHTS Assay for Lipid Storage Modulators in Drosophila S3 Cells;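 as to cell number change: cells counted by Cell Tracker Red CMTPX staining in the red channel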
Conditions: BODIPY lipid droplet fluorescence, 18-24 h; for cell number change: measured here: cell count max response, cells fed with added oleic acid
Procedure, shortened: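 Drosophila S3 cells got compounds at several concentrations plus oleic acid (400 uM solution). Laser-scanning cytometry with 488 nm excitation read lipid droplets at 500-530 nm and cells at 575-640 nm. Percent activity was relative to 20 uM Triacsin C.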

[1] = measured here: lipid fluorescence (Fed channel) AC50, cells fed with added oleic acid
[2] = measured here: cell number channel AC50, cells fed with added oleic acid

Structure (SMILES)	cell number change [%]	AC50 [1]	AC50 [2]
COCCNC(=O)C(c1ccc(O)cc1)N(Cc1cccs1)C(=O)CCC(=O)Nc1ccccn1 (centres undefined)	10.5	29.1 µM [rising, single point]	
Cc1ccc2oc(-c3cccc(NC(=O)c4ccc(Br)o4)c3)nc2c1	14.4		
COc1cc2c(cc1OC)CN(CC(=O)NC(=O)NCc1ccccc1)CC2	-22		
CCOCc1nnc(NC(=O)C2CCN(C(=O)c3ccco3)CC2)s1	22.3	29.1 µM [falling, single point]	0.00461 µM [rising, full curve, poor fit]
O=P(CCCCCCCCCP(=O)(c1ccccc1)c1ccccc1)(c1ccccc1)c1ccccc1	-77.2	29.1 µM [falling, single point]	23.1 µM [falling, single point]
CS(=O)(=O)N(Cc1ccccc1)c1ccc(C(=O)NN=C2CCCCCC2)cc1	10.2	0.461 µM [rising, full curve, poor fit]	
O=C(CSc1n[nH]c(-c2ccccc2F)n1)NCC(=O)Nc1ccc(F)c(F)c1F		1.64 µM [rising, partial curve, poor fit]	
COc1ccccc1CNS(=O)(=O)c1ccc(C)cc1		18.4 µM [rising, partial curve]	
COc1ccc(N2CCN(C(=O)COc3ccc4c(C)cc(=O)oc4c3C)CC2)cc1	17.9	23.1 µM [rising, partial curve, poor fit]	
CCOC(=O)CSc1ccc(C(=O)N2CCN(C)CC2)cc1[N+](=O)[O-]	21.4	4.11 µM [rising, single point]	
OCCNCCOc1ccccc1F	-103	23.1 µM [falling, partial curve, poor fit]	18.4 µM [falling, partial curve]
O=C(Nc1ccc(F)cc1)N(Cc1nnc2n1CCCCC2)c1ccccc1	-0.949		
N/C(=N\OC(=O)CN1C(=O)c2ccccc2C1=O)c1ccc(Br)cc1	22.3	6.51 µM [rising, single point]	
O=C(Nc1nc(-c2ccncc2)cs1)c1ccco1	-9.95	7.31 µM [rising, partial curve]	
CN(C)c1nc(NCc2ccccc2)nc(SCC(N)=O)n1	-23.5	0.517 µM [rising, single point]	
CCOC(=O)c1c(NC(=O)COC(=O)C2CCC2)sc(C(=O)N(C)C)c1C		0.164 µM [falling, full curve, poor fit]	
N/C(=N\OS(=O)(=O)c1ccc(Cl)cc1)c1cccnc1	34		29.1 µM [rising, single point]
N#Cc1ccc(C23CC4(C2)[C@H](CN(Cc2ccc(-c5ccccc5)cc2)[C@@H]4c2ccccc2)C3c2ccc(Cl)nc2)cc1 (some centres undefined)	12.4	6.51 µM [rising, partial curve]	
CC(=O)Nc1cccc(NC(=O)c2cc(-c3ccccn3)nc3ccc(Cl)cc23)c1	-10.8		
Cc1ccc(S(=O)(=O)N2CN(Cc3ccco3)c3nc4ccccc4nc32)cc1	-31	23.1 µM [falling, partial curve, poor fit]	5.8 µM [falling, partial curve, poor fit]

Structure (SMILES)	cell number change [%]	AC50 [1]	AC50 [2]
CC(=O)Oc1ccccc1C(=O)Nc1ncc([N+](=O)[O-])s1	-60.9	16.4 µM [falling, single point]	
O=C(CN1CCCCCC1)Nc1ccc(Oc2ccccc2)cc1	-34.1	32.6 µM [falling, single point]	29.1 µM [falling, single point]
C=CCC(C(=O)c1ccccc1)[N+](C)(C)CC=C (centres undefined)	-19.6	0.116 µM [falling, full curve, poor fit]	
CCOc1ccccc1NC(=O)CN(c1ccc(C)cc1)S(=O)(=O)c1c(C)n[nH]c1C	32.2	9.2 µM [rising, partial curve]	0.461 µM [rising, partial curve, poor fit]
CN(C)CCCNC(=O)/C(=N\O)c1ccccc1	-17.3	0.00651 µM [falling, full curve, poor fit]	
Cc1cccc(NC(=O)/C(C#N)=C\c2cc(C)n(-c3ccc(C(=O)O)cc3)c2C)c1	-22.2		5.8 µM [falling, partial curve]
CCCOC(=O)c1ccc(NC(=O)Oc2ccccc2)cc1	-20.6	16.4 µM [falling, single point]	
Cc1cc(C)cc(OCc2nnc(SCC(=O)OC3CCCCC3)o2)c1	-14	3.26 µM [falling, full curve, poor fit]	
Cc1c(NC(=O)COC(=O)C(c2ccc(Cl)cc2)C(C)C)c(=O)n(-c2ccccc2)n1C (centres undefined)		1.46 µM [rising, partial curve]	1.16 µM [rising, partial curve]
Cc1nc(NC(=O)/C=C/c2ccccc2)sc1C(=O)N1CCCCC1	36.4	32.6 µM [rising, partial curve, poor fit]	8.2 µM [rising, partial curve, poor fit]
COc1ccc(CCNC(=O)Cn2nnc(C(=O)Nc3cccc(C)c3C)c2N)cc1OC		29.1 µM [rising, single point]	
CCC1CCCCN1S(=O)(=O)c1c(C)n(C)c(=O)n(C)c1=O (centres undefined)	0.122	25.9 µM [falling, partial curve]	
Cn1c2ccccc2c2cc(C(=O)NNS(=O)(=O)c3ccc(F)cc3)sc21		0.92 µM [rising, partial curve]	2.91 µM [rising, partial curve]
O=C(NCCCNc1ccnc2cc(Cl)ccc12)c1ccccc1F	25.4	20.6 µM [rising, single point]	
Cc1ccc(NC(=O)CSc2nnc(CNC(=O)c3ccco3)o2)cc1Cl	4.61	6.51 µM [rising, single point]	
CSc1cccc(NS(=O)(=O)c2ccccc2)c1	151	20.6 µM [rising, partial curve]	18.4 µM [rising, single point]
CCCCP(=O)(c1ccccn1)c1ccccn1	12.6	5.17 µM [falling, single point]	
COc1ccc(/C=N/NC(=O)CN(CCc2ccccc2)S(=O)(=O)c2ccc(NC(C)=O)cc2)cc1OC	9.41	36.6 µM [rising, partial curve, poor fit]	
C/C=C/c1ccc(OCCCCOc2ccc(OC)cc2)c(OC)c1	19.5	1.03 µM [falling, single point]	2.31 µM [falling, partial curve]
COc1ccc(OC)c(-c2oc3ccccc3c(=O)c2O)c1	82.9	29.1 µM [rising, single point]	18.4 µM [rising, single point]

Structure (SMILES)	cell number change [%]	AC50 [1]	AC50 [2]
C/C(=N\Nc1ccc(C(=O)O)cc1)c1ccc(Br)cc1	17.8	1.84 µM [rising, full curve, poor fit]	
O=C(CSC(=S)N1CCCCC1)N1N=CCC1c1ccccc1 (centres undefined)	45.5		14.6 µM [rising, single point]
CNc1cc(Cl)nc(SC)n1	12.9		
CCOC(=O)NC1(NC(C)C)Oc2ccccc2O1	-25.8	0.651 µM [falling, partial curve]	0.13 µM [falling, full curve, poor fit]
C/C(N)=C(/C#N)C(=O)COC(=O)CCSc1ccccc1Cl	12.7		
Oc1[nH]c2ccc(Br)cc2c1N=NC(=S)Nc1ccc(F)cc1	-24.3		0.164 µM [rising, full curve]
COc1ccc(CN2CCN(Cc3cn(C)nc3-c3ccccc3)CC2CCO)c(C)c1C (centres undefined)	-9.99	0.731 µM [falling, partial curve, poor fit]	0.731 µM [falling, single point]
COc1cc(/C=C2\SC(=S)N(NS(=O)(=O)c3ccccc3)C2=O)ccc1O	-51.7	0.0731 µM [falling, full curve]	0.146 µM [falling, full curve]
CCOC(=O)N1CCC(Nc2c(N3CCN(c4cccc(C(F)(F)F)c4)CC3)c(=O)c2=O)CC1	-30.8		
Cc1noc(C)c1CSCC(=O)N(C)CC(=O)Nc1ccc(F)c(F)c1F		20.6 µM [rising, partial curve]	
O=C(O)C1C2C=CC(C2)C1C(=O)NC1CCS(=O)(=O)C1 (centres undefined)	-11.3	18.4 µM [rising, single point]	
Cc1nc2ccc(S(=O)(=O)Nc3ccccc3C)cc2s1	-6.91	14.6 µM [falling, partial curve, poor fit]	
CCCOc1ccc(-c2nc(C#N)c(NCC3CCCO3)o2)cc1 (centres undefined)	71.9		8.2 µM [rising, partial curve]
CC(=O)C1=C(C)NC(SCC(=O)c2ccc(Cl)cc2)=C(C#N)C1c1ccco1 (centres undefined)	-23.4	29.1 µM [falling, single point]	
COc1ccc(-c2cc(C(F)(F)F)n3ncc(C(=O)N4CCc5ccccc5C4)c3n2)cc1	-13.3	18.4 µM [falling, single point]	
Cc1[nH]ccc2c1[nH]c1cc(=O)ccc12	8.52		
Cc1nnc(SCC(=O)N2CCN(S(=O)(=O)c3ccccc3)CC2)s1			0.651 µM [falling, full curve]
O=C(O)CC1c2ccccc2CCN1S(=O)(=O)c1ccc(F)cc1 (centres undefined)	23.6		

Compounds listed so far containing a cyano group (5):
Structure (SMILES)	cell number change [%]	AC50 [1]	AC50 [2]
N#Cc1ccc(C23CC4(C2)[C@H](CN(Cc2ccc(-c5ccccc5)cc2)[C@@H]4c2ccccc2)C3c2ccc(Cl)nc2)cc1 (some centres undefined)	12.4	6.51 µM [rising, partial curve]	
Cc1cccc(NC(=O)/C(C#N)=C\c2cc(C)n(-c3ccc(C(=O)O)cc3)c2C)c1	-22.2		5.8 µM [falling, partial curve]
C/C(N)=C(/C#N)C(=O)COC(=O)CCSc1ccccc1Cl	12.7		
CCCOc1ccc(-c2nc(C#N)c(NCC3CCCO3)o2)cc1 (centres undefined)	71.9		8.2 µM [rising, partial curve]
CC(=O)C1=C(C)NC(SCC(=O)c2ccc(Cl)cc2)=C(C#N)C1c1ccco1 (centres undefined)	-23.4	29.1 µM [falling, single point]	
